Measured values taken from US20250387371A1, “COMPOSITIONS AND FORMULATION METHODS FOR SUSTAINED LOCAL RELEASE OF ANTIFIBROTICS” (THE HOPKINS UNIVERISTY, priority 2022, published 2025).

Tests used:
CCD-18Co cells = assay: RT-PCR of α-SMA (ACTA2) expression in activated CCD-18Co cells; format: cell-based, human
Method: RNA was extracted using TRIzol Reagent as previously described. Li et al., 2017. RNAs were reverse transcribed into cDNA with ReverAid First Strand cDNA synthesis kit. SYBR Green PCR Master Mix kit was utilized for the real time PCR using a QuantStudio 3 PCR machine (Applied Biosystems, Waltham, MA). Primers used are detailed in Table 6. Each reaction was performed in triplicate for each primer with a no-template negative control. QuantStudio Design and Analysis Software 1.5.2 was used to analyze the data using the ΔΔCT method.

P450 enzymes = conditions: human lymphoblastoid and liver cells; cited from earlier work
[1] = of a 9 g dose (two 4.5 g doses 12 h apart), topical; cited from earlier work
C57BL/6J mice = conditions: both, mouse, in vivo

Clc1ccc(CSC(Cn2ccnc2)c2ccc(Cl)cc2Cl)cc1 (stereo not shown) [sulconazole]
lowest concentration that significantly reduced ACTA2 expression (CCD-18Co cells): 1 µM
inhibition of P450 enzymes (P450 enzymes): non-specific inhibition
systemic absorption of topically applied drug [1]: 8.7-11.3%
time to death of mice that did not survive (C57BL/6J mice): 1 to 4 days
